{"sequences": {"note": "Protein sequences, listed by entry. Tags and fused reporters are not part of them. Lines headed by an entry give the natural chain unless they say otherwise; changes in a name come on top.", "UniProt Q99500": "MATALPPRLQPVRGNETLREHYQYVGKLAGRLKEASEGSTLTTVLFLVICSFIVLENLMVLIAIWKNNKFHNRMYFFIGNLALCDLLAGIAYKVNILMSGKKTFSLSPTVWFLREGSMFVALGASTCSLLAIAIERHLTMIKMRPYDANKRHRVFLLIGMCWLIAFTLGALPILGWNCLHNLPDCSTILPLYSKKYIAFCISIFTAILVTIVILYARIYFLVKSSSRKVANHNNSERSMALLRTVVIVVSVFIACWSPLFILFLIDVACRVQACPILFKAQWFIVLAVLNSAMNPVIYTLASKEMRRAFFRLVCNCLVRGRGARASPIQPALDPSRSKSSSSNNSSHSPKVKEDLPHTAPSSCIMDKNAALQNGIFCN"}, "source": "patent US9850206B2", "about": "“S1P and/or ATX modulating agents” (BIOGEN MA INC., priority 2012, dated 2017)", "note": "Some entries share one result that the patent states for a list of compounds."}
{"target": "S1P3 (Homo sapiens, UniProt Q99500)", "test": "S1P receptor activity assay (calcium flux, FLIPR TETRA), S1P3", "type": "cell-based", "details": "top concentration 10 μM", "units": {"IC50": "µM"}}
{"compound": "CC(C)(C)[C@H]1CC[C@H](Oc2ccc(NC3CCCN(CCC(=O)O)C3)nc2)CC1", "note": "(relative stereo) [Example 12, 3-(3-(5-(trans-4-tert-butylcyclohexyloxy)pyridin-2-ylamino)piperidin-1-yl)propanoic acid]", "IC50": "> 5"}
{"compound": "CC(C)(C)[C@H]1CC[C@H](Oc2ccc(NC3CCCN(CCC(=O)O)C3)cc2)CC1", "note": "(relative stereo) [Example 13, 3-(3-((4-((trans-4-(tert-Butyl)cyclohexyl)oxy)phenyl)amino)piperidin-1-yl)propanoic acid]", "IC50": "> 5"}
{"compound": "CC(C)(C)[C@H]1CC[C@@H](Oc2ccc(C3CCCN(CCCC(=O)O)C3)cc2)CC1", "note": "(stereo in doubt) [Example 4, 4-(3-(4-(cis-4-tert-Butylcyclohexyloxy)phenyl)piperidin-1-yl)butanoic acid]", "IC50": "> 5"}
{"compound": "CCCCCCCCOc1ccc(C2CCCN(CCC(=O)O)C2)cc1", "note": "(centres unmarked) [Example 1, 3-(3-(4-(Octyloxy)phenyl)piperidin-1-yl)propanoic acid]", "IC50": "> 5"}
{"compound": "CCCCCCCCOc1ccc(C2CCCN(CCCC(=O)O)C2)cc1", "note": "(centres unmarked) [Example 2, 4-(3-(4-(Octyloxy)phenyl)piperidin-1-yl)butanoic acid]", "IC50": "> 5"}
{"compound": "CCCCCCCCOc1cccc(C2CCCN(CCC(=O)O)C2)c1", "note": "(centres unmarked) [Example 5, 3-(3-(3-(Octyloxy)phenyl)piperidin-1-yl)propanoic acid]", "IC50": "> 5"}
{"compound": "CCCCCCCCOc1cccc(C2CCCN(CCCC(=O)O)C2)c1", "note": "(centres unmarked) [Example 6, 4-(3-(3-(Octyloxy)phenyl)piperidin-1-yl)butanoic acid]", "IC50": "> 5"}
{"compound": "CC(C)(C)[C@H]1CC[C@H](Oc2cccc(C3CCCN(CCC(=O)O)C3)c2)CC1", "note": "(stereo partly drawn) [Example 7, 3-(3-(3-((trans-4-(tert-Butyl)cyclohexyl)oxy)phenyl)piperidin-1-yl)propanoic acid]", "IC50": "> 5"}
{"compound": "CC(C)(C)[C@H]1CC[C@H](Oc2cccc(C3CCCN(CCCC(=O)O)C3)c2)CC1", "note": "(stereo partly drawn) [Example 8, 4-(3-(3-((trans-4-(tert-Butyl)cyclohexyl)oxy)phenyl)piperidin-1-yl)butanoic acid]", "IC50": "> 5"}
{"compound": "CCCCCCCCOc1ccc(C2CCCC(N3CCC(C(=O)O)CC3)C2)cc1", "note": "(centres unmarked) [Example 9, 1-(3-(4-(octyloxy)phenyl)cyclohexyl)piperidine-4-carboxylic acid]", "IC50": "> 5"}
{"compound": "CC(C)(C)[C@H]1CC[C@H](Oc2ccc(C3CCCC(N4CCC(C(=O)O)CC4)C3)cc2)CC1", "note": "(stereo partly drawn) [Example 10, 1-(3-(4-(trans-4-tert-butylcyclohexyloxy)phenyl)cyclohexyl)piperidine-4-carboxylic acid]", "IC50": "> 5"}
{"compound": "CCCCCCCCOc1ccc(NC2CCCN(CCC(=O)O)C2)nc1", "note": "(centres unmarked) [Example 11, 3-(3-(5-(Octyloxy)pyridin-2-ylamino)piperidin-1-yl)propanoic acid]", "IC50": "> 5"}
{"compound": "CC(C)(C)[C@H]1CC[C@H](Oc2ccc(N3CCN(CCC(=O)O)CC3)cc2)CC1", "note": "[Example 17, 3-(4-(4-((trans-4-(tert-Butyl)cyclohexyl)oxy)phenyl)piperazin-1-yl)propanoic acid]", "IC50": "> 5"}
{"compound": "CC(C)(C)[C@H]1CC[C@H](Oc2ccc(N3CCN(CCCC(=O)O)CC3)cc2)CC1", "note": "[Example 18, 4-(4-(4-((trans-4-(tert-Butyl)cyclohexyl)oxy)phenyl)piperazin-1-yl)butanoic acid]", "IC50": "> 5"}
{"compound": "CC(C)(C)[C@H]1CC[C@H](Oc2ccc(N3CCN(CC45CCC(C(=O)O)(CC4)CC5)CC3)cc2)CC1", "note": "[Example 19, 4-((4-(4-((trans-4-(tert-Butyl)cyclohexyl)oxy)phenyl)piperazin-1-yl)methyl)bicyclo[2.2.2]octane-1-carboxylic acid]", "IC50": "> 5"}
{"compound": "CCCCCCCCOc1ccc(N2CCN(CCC(=O)O)CC2)nn1", "note": "[Example 20, 3-(4-(6-(Octyloxy)pyridazin-3-yl)piperazin-1-yl)propanoic acid]", "IC50": "> 5"}
{"compound": "CCCCCCCCOc1cnc(N2CCN(CCC(=O)O)CC2)nc1", "note": "[Example 21, 3-(4-(5-(Octyloxy)pyrimidin-2-yl)piperazin-1-yl)propanoic acid]", "IC50": "> 5"}
{"compound": "CCCCCCCCOc1ccc(N2CCN(CCC(=O)O)CC2)nc1", "note": "[Example 22, 3-(4-(5-(Octyloxy)pyridin-2-yl)piperazin-1-yl)propanoic acid]", "IC50": "> 5"}
{"compound": "CC(C)(C)[C@H]1CC[C@H](Oc2ccc(C3CCN(CCC(=O)O)C3)cc2)CC1", "note": "(stereo partly drawn) [Example 23, 3-(3-(4-((trans-4-(tert-Butyl)cyclohexyl)oxy)phenyl)pyrrolidin-1-yl)propanoic acid]", "IC50": "> 5"}
{"compound": "CC(C)(C)[C@H]1CC[C@H](Oc2ccc(C3CCN(CCCC(=O)O)C3)cc2)CC1", "note": "(stereo partly drawn) [Example 24, 4-(3-(4-((trans-4-(tert-Butyl)cyclohexyl)oxy)phenyl)pyrrolidin-1-yl)butanoic acid]", "IC50": "> 5"}
{"compound": "CC(C)(C)[C@H]1CC[C@H](Oc2ccc(C3CCCN(C4CCC(C(=O)O)CC4)C3)cc2)CC1", "note": "(stereo partly drawn) [Example 25, 4-(3-(4-((trans-4-(tert-Butyl)cyclohexyl)oxy)phenyl)piperidin-1-yl)cyclohexanecarboxylic acid]", "IC50": "> 5"}
{"compound": "CCCCCCCCOc1ccc(C2CCCN(C3CCC(C(=O)O)CC3)C2)cc1", "note": "(centres unmarked) [Example 26, 4-(3-(4-(Octyloxy)phenyl)piperidin-1-yl)cyclohexanecarboxylic acid]", "IC50": "> 5"}
{"compound": "CC[C@H]1CC[C@H](Oc2ccc(C3CCN(CCC(=O)O)CC3)cc2)CC1", "note": "[Example 28, 3-(4-(4-((trans-4-ethylcyclohexyl)oxy)phenyl)piperidin-1-yl)propanoic acid]", "IC50": "> 5"}
{"compound": "CC[C@H]1CC[C@H](Oc2ccc(C3CCN(CCCC(=O)O)CC3)cc2)CC1", "note": "[Example 30, 4-(4-(4-((trans-4-Ethylcyclohexyl)oxy)phenyl)piperidin-1-yl)butanoic acid]", "IC50": "> 5"}
{"compound": "CC[C@H]1CC[C@H](Oc2ccc(C3CCN(CCCCC(=O)O)CC3)cc2)CC1", "note": "[Example 32, 5-(4-(4-((trans-4-Ethylcyclohexyl)oxy)phenyl)piperidin-1-yl)pentanoic acid]", "IC50": "> 5"}
{"compound": "CC[C@H]1CC[C@@H](Oc2ccc(C3CCN(CCC(=O)O)CC3)cc2)CC1", "note": "[Example 34, 3-(4-(4-((cis-4-Ethylcyclohexyl)oxy)phenyl)piperidin-1-yl)propanoic acid]", "IC50": "> 5"}
{"compound": "CC[C@H]1CC[C@@H](Oc2ccc(C3CCN(CCCC(=O)O)CC3)cc2)CC1", "note": "[Example 36, 4-(4-(4-((cis-4-Ethylcyclohexyl)oxy)phenyl)piperidin-1-yl)butanoic acid]", "IC50": "> 5"}
{"compound": "CC[C@H]1CC[C@@H](Oc2ccc(C3CCN(CCCCC(=O)O)CC3)cc2)CC1", "note": "[Example 38, 5-(4-(4-((cis-4-Ethylcyclohexyl)oxy)phenyl)piperidin-1-yl)pentanoic acid]", "IC50": "> 5"}
{"compound": "O=C(O)CCN1CCC(c2ccc(OC3CCC4(CCCC4)CC3)cc2)CC1", "note": "[Example 40, 3-(4-(4-(Spiro[4.5]decan-8-yloxy)phenyl)piperidin-1-yl)propanoic acid]", "IC50": "> 5"}
{"compound": "O=C(O)CCCN1CC=C(c2ccc(OC3CCC4(CCCC4)CC3)cc2)CC1", "note": "[Example 41, 4-(4-(4-(Spiro[4.5]decan-8-yloxy)phenyl)-5,6-dihydropyridin-1(2H)-yl)butanoic acid]", "IC50": "> 5"}
{"compound": "O=C(O)CCCN1CCC(c2ccc(OC3CCC4(CCCC4)CC3)cc2)CC1", "note": "[Example 42, 4-(4-(4-(Spiro[4.5]decan-8-yloxy)phenyl)piperidin-1-yl)butanoic acid]", "IC50": "> 5"}
{"compound": "O=C(O)CCCCN1CCC(c2ccc(OC3CCC4(CCCC4)CC3)cc2)CC1", "note": "[Example 44, 5-(4-(4-(Spiro[4.5]decan-8-yloxy)phenyl)piperidin-1-yl)pentanoic acid]", "IC50": "> 5"}
{"compound": "CC(C)(C)[C@H]1CC[C@H](Oc2ccc(C3CCN(CCC(=O)O)CC3)cc2)CC1", "note": "[Example 46, 3-(4-(4-((trans-4-(tert-Butyl)cyclohexyl)oxy)phenyl)piperidin-1-yl)propanoic acid]", "IC50": "> 5"}
{"compound": "CC(C)(C)[C@H]1CC[C@H](Oc2ccc(C3CCN(CCCC(=O)O)CC3)cc2)CC1", "note": "[Example 48, 4-(4-(4-((trans-4-(tert-Butyl)cyclohexyl)oxy)phenyl)piperidin-1-yl)butanoic acid]", "IC50": "> 5"}
{"compound": "CC(C)(C)[C@H]1CC[C@H](Oc2ccc(C3CCN(CCCCC(=O)O)CC3)cc2)CC1", "note": "[Example 50, 5-(4-(4-((trans-4-(tert-Butyl)cyclohexyl)oxy)phenyl)piperidin-1-yl)pentanoic acid]", "IC50": "> 5"}
